These are yes or no findings as the source states them, for the method shown. Binding seen in cells or lysates may run through a third protein. Some results given as binding are weak or reduced against the parent protein; the word gives no strength.
Biological target: Endogenous MYCN (human (endogenous in Kelly and SK-N-BE(2)-C)) (UniProt P04198)
Assay: co-IP; total protein from Kelly and SK-N-BE(2)-C cells; immunoprecipitation with IgG or MYCN antibody, immunoblot with USP5 and MYCN antibodies

Chains of the proteins cited; added tags and fusions are not shown.
UniProt P04198: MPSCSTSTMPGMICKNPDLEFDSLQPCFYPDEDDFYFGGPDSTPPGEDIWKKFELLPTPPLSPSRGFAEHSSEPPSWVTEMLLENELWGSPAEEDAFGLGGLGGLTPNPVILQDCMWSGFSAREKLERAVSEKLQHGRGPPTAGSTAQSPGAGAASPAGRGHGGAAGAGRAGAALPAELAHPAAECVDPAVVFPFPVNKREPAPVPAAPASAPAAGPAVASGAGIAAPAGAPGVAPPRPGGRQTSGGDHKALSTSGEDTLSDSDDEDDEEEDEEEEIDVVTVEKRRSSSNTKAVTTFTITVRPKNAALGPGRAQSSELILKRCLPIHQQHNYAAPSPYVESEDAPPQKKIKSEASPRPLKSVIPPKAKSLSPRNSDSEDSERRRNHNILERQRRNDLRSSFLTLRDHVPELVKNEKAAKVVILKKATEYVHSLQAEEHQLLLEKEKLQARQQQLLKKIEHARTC
UniProt P45974: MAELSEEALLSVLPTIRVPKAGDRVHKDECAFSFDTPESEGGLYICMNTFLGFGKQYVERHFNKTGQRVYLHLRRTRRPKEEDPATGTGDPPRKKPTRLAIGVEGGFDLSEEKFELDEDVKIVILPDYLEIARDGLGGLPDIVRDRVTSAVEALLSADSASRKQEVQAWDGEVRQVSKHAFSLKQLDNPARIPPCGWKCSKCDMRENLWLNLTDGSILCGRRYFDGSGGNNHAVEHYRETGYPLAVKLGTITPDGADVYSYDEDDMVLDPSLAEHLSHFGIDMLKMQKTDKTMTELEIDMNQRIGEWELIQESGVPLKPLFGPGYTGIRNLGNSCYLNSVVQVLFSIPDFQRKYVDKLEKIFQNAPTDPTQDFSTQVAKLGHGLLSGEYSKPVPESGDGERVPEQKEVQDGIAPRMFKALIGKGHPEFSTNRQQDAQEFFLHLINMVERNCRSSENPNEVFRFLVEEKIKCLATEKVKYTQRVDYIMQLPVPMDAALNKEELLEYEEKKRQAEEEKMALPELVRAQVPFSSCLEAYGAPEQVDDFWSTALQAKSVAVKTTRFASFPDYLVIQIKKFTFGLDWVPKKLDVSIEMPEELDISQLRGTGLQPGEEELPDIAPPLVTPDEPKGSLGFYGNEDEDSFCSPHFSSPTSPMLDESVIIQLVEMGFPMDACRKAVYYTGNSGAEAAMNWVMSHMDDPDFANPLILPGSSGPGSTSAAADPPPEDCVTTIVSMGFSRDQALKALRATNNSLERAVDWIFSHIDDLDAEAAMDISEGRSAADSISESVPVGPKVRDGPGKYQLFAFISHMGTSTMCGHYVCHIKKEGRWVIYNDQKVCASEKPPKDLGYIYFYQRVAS

binding: binds
Substance: Endogenous USP5 (ubiquitin-specific protease 5) (from UniProt P45974 1-858) (enzyme)
